PubChem BioAssay AID1259298, Sanger Institute, 2017
Assay: 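Kinome knock-downs lethal on their own or synergising with anchor drugs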 (primary screen). System: HT55 human colorectal cancer cell line. Reagents: siRNA pool against human genes. Challenge: anchor drug BYL719 1 µM, cetuximab 5 µg/ml or trametinib 10 nM, or DMSO vehicle alone. Measurement: 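Replicate-averaged viability versus wells of non-targeting pool; knock-down-only robust z-score; per-drug synergy score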. Scale: robust z-score, knock-down alone: higher = more cells remaining; low means essential gene; viability vs control pool, no drug: higher = more viable cells; synergy score with BYL719: higher = stronger synthetic lethality with the drug. Active means: 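Essential when the robust z-score for knock-down alone with DMSO is below -3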. Calls: active = essential (knock-down alone); inactive = no change alone.
Here is a random part of 794 deposited reagents. 20 of all reagents (2.5%) were called active. 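Calls rest only on the knock-down-alone score; drug synergy scores played no part in them.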 Viability is capped at 1. Further read-outs or replicates are left out here. Not stated in the record: the amount of reagent, the time to read-out.

gene	robust z-score, knock-down alone	viability vs control pool, no drug (fraction)	synergy score with BYL719	Outcome
ACVR2A	-0.272	0.933	-0.0699	inactive
STK17A	0.252	0.974	-0.246	inactive
BRAF	0.00115	0.955	-0.16	inactive
CERT1	0.58	1	-0.267	inactive
DLG3	0.58	1	-0.0201	inactive
CHD9	-1.11	0.868	-0.0724	inactive
PAK5	0.58	1	-0.272	inactive
ETNK1	-0.276	0.933	-0.188	inactive
MYLK4	0.58	1	-0.115	inactive
PRKAR2A	0.58	1	-0.237	inactive
VRK2	0.58	1	-0.114	inactive
PRKACA	0.58	1	-0.135	inactive
EPHA7	-2.88	0.73	-0.256	inactive

The list goes on; the last 2 above are carried over.
gene	robust z-score, knock-down alone	viability vs control pool, no drug (fraction)	synergy score with BYL719	Outcome
PRKACA	0.58	1	-0.135	inactive
EPHA7	-2.88	0.73	-0.256	inactive
CDKN2C	0.58	1	-0.16	inactive
PI4KB	0.58	1	-0.272	inactive
CAMKK1	0.532	0.996	-0.25	inactive
PSKH1	0.58	1	-0.247	inactive
WIPF1	-2.01	0.798	-0.104	inactive
DUSP21	0.58	1	-0.0535	inactive
MAK	-0.125	0.945	-0.217	inactive
